PMC8512704, “A Uniform Benchmark for Testing SsrA-Derived Degrons in the Escherichia coli ClpXP Degradation Pathway” (Molecules, 2021)
These are yes or no findings as the source states them, for the method shown. Where a sequence is shown, tags or fusion partners need not be part of it.

How the values were obtained:
[1] = target: T1, eGFP-SENYALAA (Escherichia coli); assay: MST; 50 nM eGFP-degron (eGFP fluorescence), SspB titrated 3.72 nM to 122 μM; 25 mM Hepes pH 7.6, 200 mM KCl, 5 mM MgCl2, 10% glycerol, 0.05% Tween 20; 15 min at RT; measured at 20 °C, Monolith NT.115; both purified
T1 sequence: SENYALAA

[2] = target: T2, eGFP-SENYADAS (Escherichia coli); assay: as above
T2 sequence: SENYADAS

[3] = target: T1, eGFP-SENYALAA (Escherichia coli); assay: native gel or EMSA; 8 μM eGFP-degron and 8 μM SspB2 mixed, about 10 min at RT in 50 mM Tris-HCl pH 7.5, 200 mM NaCl, 5 mM MgCl2; 15% native polyacrylamide gel in Tris/borate buffer; SimplyBlue Safe Stain; both purified
[4] = target: T2, eGFP-SENYADAS (Escherichia coli); assay: as above

binding [1]: no binding (tested: SspB up to 122 μM)
binding [2]: no binding (tested: SspB up to 122 μM)
binding [3]: no binding (tested: 8 μM each)
binding [4]: no binding (tested: 8 μM each)
B1: SspB (natural protein, Escherichia coli, UniProt P0AFZ3 1-165, looked up)
chain: MDLSQLTPRRPYLLRAFYEWLLDNQLTPHLVVDVTLPGVQVPMEYARDGQIVLNIAPRAVGNLELANDEVRFNARFGGIPRQVSVPLAAVLAIYARENGAGTMFEPEAAYDEDTSIMNDEEASADNETVMSVIDGDKPDHDDDTHPDDEPPQPPRGGRPALRVVK
